Record: PubChem BioAssay AID686943 (Drosophila RNAi Screening Center, 2013)
Test: 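Fly genes whose loss alters ERK activation after insulin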 (primary screen). System: Drosophila S2R+ haemocyte-like cells expressing YFP-tagged ERK (Rolled). Reagent: long dsRNA against Drosophila genes. Challenge: insulin stimulation versus unstimulated cells; dose and duration not given. Measured: 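Per-plate z-scores of phospho-ERK immunostaining normalised to YFP-tagged ERK, measured with and without insulin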. Direction: replicate 1, z-score of dpERK with insulin and replicate 2, z-score of dpERK with insulin: higher = more active ERK per ERK-YFP after insulin; replicate 1, z-score of dpERK under basal conditions: higher = more basal active ERK per ERK-YFP; replicate 1, z-score of ERK-YFP with insulin: higher = more YFP-tagged ERK signal.
The screen tested about 23,000 reagents; shown is a random part of those that have a named target and a result. 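Extra replicates exist only for a retested subset of genes; insulin dose and duration not given; both raised and lowered dpERK matter.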 The numbers tell different reagents against one gene apart. Not given: the amount of reagent, the time to read-out.

replicate 1, z-score of dpERK with insulin	replicate 2, z-score of dpERK with insulin	replicate 1, z-score of dpERK under basal conditions	replicate 1, z-score of ERK-YFP with insulin	target	dsRNA no.
0.3	0.21	0.19	0.09	bol (boule)	1
1.18	-0.08	-0.54	-0.5	bol (boule)	2
-1.18	-0.5	-0.05	-0.5	bol (boule)	3
-0.51	0.04	0.51	0.18	CG31528	1
0.8	0.13	-0.42	-0.36	CG16711	1
1.66	0.89	0.25	-1.29	Pitslre	1
0.24	0.79	-0.5	-0.18	CG14664	1
-0.79	-0.19	-1.19	1.17	Set	1
-0.17	-0.12	-0.61	0.18	Dyrk3 (Dual-specificity tyrosine phosphorylation-regulated kinase 3)	1
-0.54	0.17	-0.51	0.53	CG31525	1
0.07	0.39	-0.72	0.03	Cypl (Cyclophilin-like)	1
-0.63	0.31	-0.27	0.59	Psa (Puromycin sensitive aminopeptidase)	1
0.1	0.25	-0.01	-0.82	CG14275	1
1.34	1.78	0.22	-2.38	CG31806	1
0.02	-0.17	0.46	-0.7	CG3955	1
-1.14	-0.11	0.01	0.8	Ekar (Eye-enriched kainate receptor)	1
-0.45	-0.57	-0.28	-0.62	TfIIEalpha (Transcription factor IIEalpha)	1
0.54	-0.12	1.21	0.74	RhoGAPp190 (Rho GTPase activating protein p190)	1
-0.31	0.41	-1.06	0.2	RhoGAPp190 (Rho GTPase activating protein p190)	2
1.35	3.75	0.04	-0.91	Ect3 (Ectoderm-expressed 3)	1
-0.55	-0.18	1.74	-0.51	PAN2 (Poly(A)-binding protein-dependent poly(A) ribonuclease 2)	1
1.02	0.25	1.26	0.2	nudE	1
0.6	0.42	1.69	-0.16	nudE	2

Ordered by “replicate 1, z-score of ERK-YFP with insulin” (low to high): some entries from above.
replicate 1, z-score of dpERK with insulin	replicate 2, z-score of dpERK with insulin	replicate 1, z-score of dpERK under basal conditions	replicate 1, z-score of ERK-YFP with insulin	target	dsRNA no.
-0.31	0.41	-1.06	0.2	RhoGAPp190 (Rho GTPase activating protein p190)	2
0.54	-0.12	1.21	0.74	RhoGAPp190 (Rho GTPase activating protein p190)	1
